{"sequences": {"note": "Sequences of proteins named here, by UniProt entry; tags and fusion partners are left off. A change or cut given only in a name is not applied to a line headed by its entry.", "UniProt Q01726": "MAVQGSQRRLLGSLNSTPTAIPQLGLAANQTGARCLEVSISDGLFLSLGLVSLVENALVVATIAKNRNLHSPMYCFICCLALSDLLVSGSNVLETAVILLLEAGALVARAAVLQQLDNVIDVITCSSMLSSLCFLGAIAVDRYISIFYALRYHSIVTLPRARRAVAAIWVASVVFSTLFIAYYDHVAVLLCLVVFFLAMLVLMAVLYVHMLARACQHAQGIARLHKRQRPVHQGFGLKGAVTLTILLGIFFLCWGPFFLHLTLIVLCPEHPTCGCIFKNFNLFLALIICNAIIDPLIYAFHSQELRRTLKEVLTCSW"}, "source": "patent US6448032B1", "about": "“Human melanocyte stimulating hormone receptor polypeptide and DNA” (priority 1992, dated 2002)", "target": "T1, MSH receptor (Homo sapiens, UniProt Q01726)", "T1 construct": "This polypeptide constitutes the entire polypeptide of an MSH receptor; expressed in transfected cells; host or cells: COS-7 cells, transient, plasmid pE-11D (pcDNAI)", "assay": "Inhibition of 125I-NDP-MSH binding to COS-7 cells transfected with MSH receptor cDNA (pE-11D)", "conditions": "pE-11D transfected COS-7 cells, 37° C., 2 hours; Ki from IC-50 by Cheng and Prusoff equation; read-out: Ki for inhibiting 125I-NDP-MSH binding", "protocol": "Eighty percent confluent cultures were transfected with 1 μg of pE-11D plasmid DNA and 40 μg lipofectin (BRL, 8400 Helgerman Court, Gaithersburg, Md. 20877, USA) in serum free medium. Five hours after transfection, serum containing medium was replaced, and cells were cultivated for 20 hours. Cells were then scraped off, centrifuged, resuspended in serum containing medium, plated on 48 well plates, and allowed to grow for 24 hours. […] Radioactivity was counted and data analyzed by iterative, non-linear curve fitting programme suitable for radioligand binding analysis (see FIG. 6).", "note": "At least one structure is not confirmed: it was looked up by name or label, or the drawing left a doubt.", "data": [{"smiles": "CSCC[C@H](NC(=O)[C@H](CCCN=C(N)N)NC(=O)[C@H](Cc1ccc(O)cc1)NC(=O)[C@@H]1CCCN1C(=O)CNC(=O)[C@H](CCC(=O)O)NC(=O)[C@H](CC(=O)O)NC(=O)[C@H](CCCCN)NC(=O)[C@H](CCCCN)NC(=O)[C@H](CCC(=O)O)NC(=O)[C@H](C)N)C(=O)N[C@@H](CCC(=O)O)C(=O)N[C@@H](Cc1c[nH]cn1)C(=O)N[C@@H](Cc1ccccc1)C(=O)N[C@@H](CCCN=C(N)N)C(=O)N[C@@H](Cc1c[nH]c2ccccc12)C(=O)NCC(=O)N[C@@H](CO)C(=O)N1CCC[C@H]1C(=O)N1CCC[C@H]1C(=O)N[C@@H](CCCCN)C(=O)N[C@@H](CC(=O)O)C(=O)O", "note": "[β-MSH]", "values": [{"measurement": "Ki", "result": "0.449 ± 0.074", "unit": "nM"}]}]}
